No constants are given. Whether binding was seen depends on the method and setting. Some entries that bind do so weakly or less than the wild type.
Key:
[1] = molecular target: D1 domain of human JAM-A (residues 28–129) with E121A (human) (UniProt Q9Y624); assay: SEC; analytical Superdex 75 PC 3.2/30 (SMART system); 20 mM Hepes pH 7.4 or 20 mM citrate pH 5.0, 100 mM NaCl; both purified
[2] = molecular target: T1, D1 domain of human junctional adhesion molecule-A (hJAM-A D1; residues 28–129) (human) (UniProt Q9Y624); assay: SEC; analytical Superdex 75 PC 3.2/30 (SMART system); 20 mM citrate pH 4.5 or 4.0, 100 mM NaCl; both purified
T1 sequence: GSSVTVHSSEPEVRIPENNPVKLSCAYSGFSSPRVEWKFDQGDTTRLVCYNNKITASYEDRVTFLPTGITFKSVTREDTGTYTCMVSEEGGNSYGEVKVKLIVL

[3] = molecular target: T1, D1 domain of human junctional adhesion molecule-A (hJAM-A D1; residues 28–129) (human); assay: SEC; analytical Superdex 75 PC 3.2/30 (SMART system); 20 mM Hepes pH 7.4 or 20 mM citrate pH 5.0, 100 mM NaCl; both purified

Molecule: D1 domain of human JAM-A (residues 28–129) with E121A (from UniProt Q9Y624 28-129) (domain or fragment)
- binding [1]: no binding

Molecule: reovirus type 3 Dearing (T3D) σ1 fragment comprising the head domain and one β-spiral of the tail (σ1H; residues 293–455) (from UniProt P03528 293-455) (domain or fragment)
- binding [2]: no binding (condition: pH 4.5 or 4.0)

B1: D1 domain of human junctional adhesion molecule-A (hJAM-A D1; residues 28–129) (domain or fragment)
chain: GSSVTVHSSEPEVRIPENNPVKLSCAYSGFSSPRVEWKFDQGDTTRLVCYNNKITASYEDRVTFLPTGITFKSVTREDTGTYTCMVSEEGGNSYGEVKVKLIVL
notes: two non-native residues left at the N-terminus after removal of GST, numbered Gly26 and Ser27; human junctional adhesion molecule-A, membrane-distal D1 domain, residues 28-129; Homodimer in solution at neutral pH; also called wt D1; source: E. coli BL21 (DE3) pLysS, purified (GSTrap, on-column thrombin cleavage, SEC); not shown: GST, N-terminal, cleaved
- binding [3]: binds

— paper PMC2588538, “Structure of Reovirus σ1 in Complex with Its Receptor Junctional Adhesion Molecule-A” (PLoS Pathogens, 2008)
